For at least one entry, the source does not settle the construct or the ends of the probe.
molecular target: T1, His6-LexA (Streptomyces mobaraensis NBRC 13819) (UniProt A0A5N5W758); experiment: EMSA; conditions: EMSA: 0, 100, 200 ng His6-LexA, 25 nM probe, 20 uL; 30 mM KCl, 10 mM Tris-HCl (pH not stated), 0.4 mM DTT, 2 mM MgCl2, 0.2 mM EDTA, 2% glycerol; 30 min, 30 C; recombinant protein; residues 1-261; protein details: N-terminal His6 (pET-28a(+)); probe letters rebuilt from the primers and the genome
T1 sequence: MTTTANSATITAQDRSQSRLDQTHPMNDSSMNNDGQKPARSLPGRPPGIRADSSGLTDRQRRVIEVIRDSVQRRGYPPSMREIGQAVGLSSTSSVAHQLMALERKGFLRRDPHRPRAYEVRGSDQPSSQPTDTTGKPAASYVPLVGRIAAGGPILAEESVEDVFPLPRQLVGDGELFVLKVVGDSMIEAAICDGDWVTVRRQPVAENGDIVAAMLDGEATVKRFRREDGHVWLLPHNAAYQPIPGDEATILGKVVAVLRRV

Binding result, binds:
CGTGACAGTGCCGGCCTCCTCCGCGACGACGATCGGCGCGGGCGCGCTCCGCGACCGTACGAGCCACCCGGCGCGCGACGCGGCGACCCACCCGGCCAGCGGCGTCAGCAGCATCAT (double strand) [Probe ftsH (117 bp)], GTCATGACCCCCTGGCCGATTTCCGCCCCTCTTCTTCCACCATAAACCACGTCATCGAACATCCGTACGAACACGCGAGCGAACACCCCGCGTGCCTCCCGCCCTCGAGTC (double strand) [Probe sti (111 bp)], GATAGCCGAGCTGGCCGCGGCAGGACTCGACGGCATCGAGGTCGACCATATGGACCACGACGCCCCGGCCCGCGCCCGGCTGGGCGGCCTCGCCGCCGACCTCTCCCTGCTGACCACG (double strand) [Probe rplJ (118 bp)], CGAGCACGAGCGCGGCGTCCACCGGGCGGTGCCGGGGCTGCCCGAGGACGAGGTCGATGCCGTACGCCGGGGGGACGTCGGCGGTGTGCGCGGTGGCCGGG (double strand) [Probe divIVA (101 bp)], GATCCCGCCGCTCGTACGGTCGGACATGTGCCCGGCAACCGGGCCGGGACCCACGCAGGTTACGTGTTCGAGGTGTGATGACGATGGAAACGACAAGGCCGGTGGCGGTG (double strand) [Probe araC1 (110 bp)]
